Taken from: PubChem BioAssay AID1259308 (NCATS, 2017)
Here is a random part of about 59,000 reagents. Over the whole deposit, about 1,510 (2.6%) got an active call. 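Calls use total luciferase alone and ignore viability, so some active siRNAs may act by altering cell number.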 Entries without a mark were called inactive. The numbers tell different reagents against one gene apart. Further read-outs or replicates are left out here.

Test: 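Knock-downs that increase output of a recombinant reporter protein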 (primary screen)
System: human HEK293 embryonic kidney cells stably expressing firefly luciferase (HEK-CMV-Luc2-Hygro)
Reagent: single siRNA against human genes, 0.8 pmol siRNA per well
Time to read-out: 72 h
Detection: 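Reporter luminescence and viable-cell signal on separate replicate plates, given as percent of non-targeting control and median/MAD z-scores, plus per-cell luciferase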
Reading the numbers: total luciferase, z-score and total luciferase, % of control: higher = more reporter protein produced
Active means: 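Active when the median/MAD z-score for overall luciferase is greater than 3; a gene was taken forward for validation with new siRNAs if at least two of its three siRNAs passed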
Calls: active = raised luciferase; inactive = no rise

How did the screen score WNT3A #1?
total luciferase, z-score: -0.0806; total luciferase, % of control: 80.3

Which result is listed for WNT3A #2?
total luciferase, z-score: -1.1; total luciferase, % of control: 60

What did the screen give for WNT3A #3?
total luciferase, z-score: 0.314; total luciferase, % of control: 88.1

What is on record for NKAPL #1?
total luciferase, z-score: 1.33; total luciferase, % of control: 108

With NKAPL #2, what does the deposit list?
total luciferase, z-score: -1.53; total luciferase, % of control: 51.5

What did the screen give for NKAPL #3?
total luciferase, z-score: 0.151; total luciferase, % of control: 84.9

Limited to “total luciferase, % of control” (2 entries from above):
WNT3A #3 = 88.1
NKAPL #1 = 108

The list goes on:
With CIMIP7 #1, what does the deposit list?
total luciferase, z-score: -1.8; total luciferase, % of control: 46

What is on record for CIMIP7 #2?
total luciferase, z-score: 0.959; total luciferase, % of control: 101

With CIMIP7 #3, what does the deposit list?
total luciferase, z-score: 4.05 (active); total luciferase, % of control: 162

How did the screen score SNED1 #1?
total luciferase, z-score: 0.116; total luciferase, % of control: 84.2

What did the screen give for SNED1 #2?
total luciferase, z-score: -0.331; total luciferase, % of control: 75.3

What did the screen give for SNED1 #3?
total luciferase, z-score: 0.193; total luciferase, % of control: 85.7
